Results reported in the supplement of paper PMC12578635.
The other results are listed elsewhere or left out. Rule as the data show it: active = 150% or more and inactive = the rest. Many values rest on one well or one pass, so single values are uncertain.

The molecules below were run on Staphylococcus aureus JE2-lux inside RAW 264.7 macrophages (assay: intracellular bacterial bioluminescence relative to DMSO vehicle; higher = higher intracellular bacterial metabolic activity). Settings: 10 µM; treatment time 4 h; gentamicin 50 µg/ml.

Intracellular bacterial bioluminescence, inactive:
O=C(CCCn1c(=S)[nH]c2cc3c(cc2c1=O)OCO3)N1CCN(C(=O)c2ccco2)CC1 80.6%
Cn1c(=O)n(CCCO)c(=O)c2c1nc1n(-c3ccccc3F)c(-c3ccccc3)cn21 76.5%
Cc1cccc(NC(=O)C(=O)NCCCO)c1C 91.5%
Cc1cc(C)c2nc3sc(C(=O)N4CCCCCC4)c(N)c3cc2c1 74.7%
Cc1nc2nc(-c3ccccc3)nn2c(Sc2ccc(N)cc2)c1C 101%
O=C(Nc1ccc(C(=O)OCc2nc3ccccc3[nH]2)cc1)c1ccc2nccnc2c1 123%
Cc1ccc(C2C(C(=O)c3ccco3)=C(O)C(=O)N2CCCN(C)C)cc1 (stereo not given) 106%
CCn1nc(C)c2[nH]c(=S)n(Cc3cccc(OC)c3)c(=O)c21 114%
C/C(=N\Nc1nc2c(c(=O)[nH]c(=O)n2C)n1CC(C)C)c1ccccc1 95.8%
CCOc1ccc(-c2cc3c(N4CCC(C(=O)NCc5cccnc5)CC4)nccn3n2)cc1 72.9%
CCOC(=O)c1ccccc1NC(=O)CSc1nc2c(-c3ccccc3)csc2c(=O)n1C 106%
COc1ccccc1-n1c(SCC(=O)Nc2ccccc2F)nc2cccnc21 83.5%
CC1(C)Cc2c(sc(NC(=O)CN3C(=O)CCC3=O)c2C(N)=O)C(C)(C)N1 116%
O=C(/C=C/c1cccs1)Nc1nc2c(s1)CSc1ccccc1-2 104%
CC1CN(CC(=O)Nc2ccc3[nH]c(CN4CCCCC4)nc3c2)CC(C)O1 (stereo not given) 115%
Cc1cccc(CNc2nc(N3CCN(C)CC3)nc3c2cnn3C)c1 102%
CCOc1ccc(C(=O)Nc2cc(=O)n(C)c(=O)n2C)cc1 98.9%
Cc1cc2c(=O)n(CC(=O)Nc3cnn(Cc4ccc(F)cc4)c3)cnc2s1 0.982%
CC(NC(=O)C(C)N1C(=O)NC(C)(C)C1=O)c1ccc2c(c1)CCC2 (stereo not given) 94.6%
O=C1C2C(c3ccc(O)cc3)NN(Cc3ccccc3)C2C(=O)N1C1CCCCC1 (stereo not given) 101%
O=C(Nc1nnc(Cc2cccc(F)c2)s1)c1cc2c([nH]c1=O)CCCCC2 83.3%
CCN(c1ccccc1)S(=O)(=O)c1ccc(C(=O)Nc2ccc3ncsc3c2)cc1 98.7%
CCOc1cccc2c1OC(c1ccncc1)N1N=C(c3cccc(O)c3)CC21 (stereo not given) 75%
CSc1ncc(C(=O)Nc2nc(-c3c[nH]c4cc(C)ccc34)cs2)cn1 135%
Cc1nn(-c2ccccc2)c2ncc(C(=O)Nc3ccc4c(c3)OCCO4)c(Cl)c12 103%
N#CC1=C(N)Oc2c(oc(CO)cc2=O)C12C(=O)N(Cc1ccccc1)c1ccccc12 (stereo not given) 33.4%
CCOc1ccc(CN2C(=O)c3ccccc3C2C(=O)NCCCOC(C)C)cc1 (stereo not given) 113%
CC(=O)Nc1ccc(Nc2ncnc3c2c(C)c(C)n3-c2ccccc2)cc1 82.3%
Cc1ccc(Cl)cc1NS(=O)(=O)c1cc(-c2nc(C)c(C)s2)cs1 31.5%
Cc1ccc(-c2nnc3ccc(SCC(=O)Nc4cc(C)on4)nn23)cc1 114%
CCn1/c(=N/C(=O)CSCC(=O)Nc2nccs2)sc2ccccc21 70.8%
O=C(CN1C(=O)CC(c2ccco2)Sc2ccccc21)Nc1ccccc1 (stereo not given) 81.6%
Cc1nonc1NC(=O)CSc1nc2cc3c(cc2cc1C#N)OCCO3 62.7%
CCOC(=O)Nc1ccc2c(c1)C(=O)Nc1cc(C)ccc1O2 97.8%
CCOc1ccc2nc(NC(=O)CN3C(=O)c4ccccc4C3=O)sc2c1 66.1%
CN1CCc2c(sc(NC(=O)c3cc(-c4ccccc4)nc4ccccc34)c2C(N)=O)C1 60.9%
CC1CCc2c(sc3ncnc(SCC(=O)Nc4ccc(C(=O)O)cc4)c23)C1 (stereo not given) 71.9%
CCOC(=O)c1ccccc1NC(=O)CSc1nc(=O)[nH]c(C)c1C(=O)OCC 102%
CNC(=S)N(CCc1c(C)[nH]c2ccc(C)cc12)Cc1cccnc1 78%
O=C(CN1CCC2(CC1)NC(=O)N(Cc1ccc(Cl)cc1)C2=O)Nc1cccc(F)c1 44.9%
Cc1cc(NC(=O)Cn2c(C)cc(C)c(C#N)c2=O)[nH]n1 116%
COc1ccc([N+](=O)[O-])cc1NC(=O)c1c[nH]c(=O)n(-c2ccc(OC)c(OC)c2)c1=O 120%
COc1cccc2sc(NC(=O)c3cccc(C(F)(F)F)c3)nc12 111%
N#Cc1c2c(c(NCCN3CCCCCC3)n3c1nc1ccccc13)CCC2 127%
Cc1ccc2sc(NNC(=O)c3nc4ccccc4s3)nc2c1C 101%
COC(=O)C1Sc2[nH]c(=O)sc2C(c2cccc([N+](=O)[O-])c2)C1C(=O)OC (stereo not given) 97.5%
CCOc1ccccc1C1C(C#N)=C(N)Oc2[nH]nc(-c3ccccc3)c21 (stereo not given) 80.6%
CN1CCN(Nc2ncnc(N)c2[N+](=O)[O-])CC1 109%
COc1ccccc1NC(=O)CN1C(=O)C2(SCC(=O)N2c2cccc(F)c2)c2cc(C)ccc21 (stereo not given) 102%
COCCNC(=O)CN1CCN(c2ncc(NC(C)=O)cc2C(=O)O)CC1 97%
Cn1c(=O)[nH]c(=O)c2c1nc1n2CC(c2ccc(Br)cc2)O1 (stereo not given) 106%
COc1ccc(C(=O)Nc2sc3c(c2C(N)=O)CCCCC3)c(OC)c1 86.1%
Cc1ccc(-c2ncc3c(=O)n(CC(=O)Nc4nccs4)c(=O)n(C)c3n2)cc1 114%
Cn1nc(C(C)(C)C)cc1C(=O)N1CCc2c(nc(N3CCOCC3)[nH]c2=O)C1 106%
COc1cccc(-c2ocnc2C(=O)Nc2ccc(CN3CCCCC3)cc2)c1 24%
O=C(COc1ccc(Cl)cc1)Nc1nc2c(s1)CSc1ccccc1-2 128%
CCc1c(C)nc2ncnn2c1Sc1ccc(NC(=O)C2CC(=O)N(c3ccc(C)cc3)C2)cc1 (stereo not given) 72.4%
O=C(NCc1n[nH]c(=O)c2ccccc12)Nc1c(F)cccc1F 107%
COC(=O)c1cccc(-n2nnnc2SCC(=O)Nc2ccc(F)cc2)c1 83.9%
Cc1ccc(-c2c(C(F)(F)F)nn3c(NCc4cccnc4)cc(C)nc23)cc1 81.6%
Cc1ccc(NC(=O)CN(C2=NC3CS(=O)(=O)CC3S2)c2ccc(C(C)C)cc2)cc1 (stereo not given) 85.3%
O=C(CC1(O)C(=O)Nc2ccc(Cl)cc21)c1cccs1 (stereo not given) 119%
CC1CCCCN1S(=O)(=O)c1ccc2c(c1)c(=O)n(CC(=O)N1CCCC1)c(=O)n2C (stereo not given) 104%
CC(=O)c1cnc2cc(C(=O)NC(c3ccccc3)c3cccnc3)nn2c1C (stereo not given) 128%
O=C(CSc1nnc(-c2ccco2)c(-c2ccco2)n1)c1cccs1 106%
Cc1cc(OC(=O)c2ccc(Br)o2)c([N+](=O)[O-])c(=O)[nH]1 76%
Cc1cc(N2CCOCC2)nc(SCC(=O)Nc2ccc(Cl)cc2Cl)n1 100%
Cc1ccc(-c2nsc(NC(=O)c3oc4cc(Br)ccc4c3C)n2)s1 105%
O=C(COc1coc(CN2CCN(c3ccccc3F)CC2)cc1=O)Nc1cccc([N+](=O)[O-])c1 109%
Nc1ncnc(Nc2cc(C(F)(F)F)ccc2Cl)c1[N+](=O)[O-] 101%
COC(=O)c1ccc(C(=O)Nc2nc3c(cc4c5c(cccc53)CC4)s2)cc1 104%
CN1C(=O)c2cccc(NC(=O)c3cc4c(ccc5ccccc54)oc3=O)c2C1=O 117%
CC(NC(=O)CC1CCN(C(=O)c2cc3cc(Cl)ccc3[nH]2)CC1)c1ccccc1 (stereo not given) 87.3%
CCn1nc(C)c2ccnc(N3CCC(C(=O)Nc4cc(Cl)c(OC)cc4OC)CC3)c21 56.8%
Cc1noc(C)c1CCC(=O)N1CCC[C@@H](CNC(=O)c2ccco2)C1 110%
Cc1ccc(COc2cccc3c2CCNC3=O)cc1 66.8%
CC1(C)CC(=O)C2=C(C1)Nc1ccccc1N(CC(=O)NCc1ccncc1)C2c1ccco1 (stereo not given) 103%
CCOc1ccc(NC(=S)NNc2nc(N3CCCC3)nc(N3CCCC3)n2)cc1 71.5%
O=C(NCc1nnnn1-c1ccccc1)c1cc(=O)c2ccccc2o1 91.6%
Cn1c(=O)c2nc(SCC(=O)c3ccc(Cl)c(Cl)c3)[nH]c2n(C)c1=O 96.6%
Cc1oc2ncnc(OCC(=O)Nc3cccc(Cl)c3C)c2c1C 95.9%
CCCCOc1ccc(NCc2cc3c(C)nn(-c4ccccc4)c3[nH]c2=O)cc1 65.5%
CCCC(=O)Nc1sc(Nc2ccc(C)cc2)nc1C(N)=O 41.8%
CCOc1cccc2sc(Nc3nc4ccc(NC(C)=O)cc4s3)nc12 116%
COc1ccc(C(CNc2nn3cnnc3c3ccccc23)N2CCOCC2)cc1 (stereo not given) 118%
O=C(Cc1cc(=O)[nH]c(=O)[nH]1)NCCN1CCOCC1 90.6%
COCCCNC(=O)NC(c1ccccc1)c1nnc(-c2ccc(Cl)cc2)o1 (stereo not given) 89%
O=C(O)C(Sc1nncc(-c2ccccc2)n1)c1ccccc1 (stereo not given) 95.2%
Cc1cc(C)c2nc(NC(=O)Nc3cccc(Cl)c3)sc2c1 102%
COc1cc(NC(=O)Cn2ncn3nc4c(c3c2=O)CCCC4)cc(OC)c1 15.4%

Six compounds already listed, sorted by molecular weight, descending:
Intracellular bacterial bioluminescence, inactive:
Cc1ccc(-c2nsc(NC(=O)c3oc4cc(Br)ccc4c3C)n2)s1 105%
CCOC(=O)c1ccccc1NC(=O)CSc1nc(=O)[nH]c(C)c1C(=O)OCC 102%
CCOc1ccccc1C1C(C#N)=C(N)Oc2[nH]nc(-c3ccccc3)c21 (stereo not given) 80.6%
C/C(=N\Nc1nc2c(c(=O)[nH]c(=O)n2C)n1CC(C)C)c1ccccc1 95.8%
Cc1nc2nc(-c3ccccc3)nn2c(Sc2ccc(N)cc2)c1C 101%
O=C(Cc1cc(=O)[nH]c(=O)[nH]1)NCCN1CCOCC1 90.6%
